Source: PubChem BioAssay AID1159584 (Peter MacCallum Cancer Centre, 2016)
The whole screen tested about 18,000 reagents; this is an unselected part. Not stated in the record: the amount of reagent, the time to read-out.

Aim: 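Genes that CDH1-null MCF10A cells selectively depend on to survive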 (primary screen)
Cells: human MCF10A breast epithelial cells, parental and CDH1-null
Reagents: siRNA against human genes
Read-out: 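Cell viability by CellTiter-Glo ATP luminescence, each line scaled to the mean of mock wells across plates, then CDH1-null over parental ratio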
Scale: CDH1-null / parental viability ratio: higher = CDH1-null cells survive relatively better than parental; CDH1-null viability vs mock: higher = more viable CDH1-null cells; parental viability vs mock: higher = more viable parental cells

gene knocked down | CDH1-null / parental viability ratio | CDH1-null viability vs mock (fraction of mock) | parental viability vs mock (fraction of mock)
NEUROD6 | 1.25 | 0.5 | 0.4
ADAM30 | 1.02 | 0.84 | 0.82
HNRNPA1L2 | 0.98 | 0.58 | 0.59
BANP | 0.62 | 0.46 | 0.74
PINK1 | 1.34 | 0.95 | 0.71
MT1H | 1.06 | 1.04 | 0.98
MARVELD3 | 1.35 | 0.84 | 0.62
H1-7 | 0.99 | 0.8 | 0.81
EFNA5 | 0.84 | 0.77 | 0.92
NOXA1 | 1.19 | 0.64 | 0.54
ATP6V1B2 | 0.89 | 0.59 | 0.66
PCSK1 | 1 | 0.53 | 0.53
DPP6 | 1.12 | 0.92 | 0.82
RBM42 | 1 | 0.35 | 0.35
MPC1 | 0.97 | 0.62 | 0.64
TAF10 | 0.86 | 0.76 | 0.88
ADCY2 | 0.94 | 0.91 | 0.97
CUX1 | 1.05 | 1.03 | 0.98
DHX40 | 0.85 | 0.64 | 0.75
ABHD17AP1 | 1.19 | 1.14 | 0.96
ETFB | 1.01 | 0.93 | 0.92
TMEM50B | 1.14 | 1.08 | 0.95
BATF | 1.24 | 0.72 | 0.58
NAP1L1 | 0.97 | 0.91 | 0.94
YIPF3 | 1.3 | 0.83 | 0.64
GATAD1 | 0.97 | 0.7 | 0.72
KDM3A | 0.86 | 0.65 | 0.76
GPAA1 | 0.89 | 0.62 | 0.7
LYVE1 | 0.66 | 0.42 | 0.64
MCM9 | 1 | 1.08 | 1.08
INO80B | 0.81 | 0.65 | 0.8
GPR55 | 1.53 | 1.04 | 0.68
TSPY1 | 1.27 | 1.44 | 1.13
PAK6-AS1 | 0.79 | 0.3 | 0.38

Taken from above.
Value of PCSK1 in “CDH1-null viability vs mock (fraction of mock)”: 0.53
For “parental viability vs mock (fraction of mock)”, H1-7 shows 0.81
For “CDH1-null viability vs mock (fraction of mock)”, DPP6 reads 0.92
Under “CDH1-null / parental viability ratio”, NAP1L1 is entered as 0.97
LYVE1, parental viability vs mock (fraction of mock) → 0.64

Additional records follow:
gene knocked down | CDH1-null / parental viability ratio | CDH1-null viability vs mock (fraction of mock) | parental viability vs mock (fraction of mock)
GJA1 | 1.01 | 1.12 | 1.11
MANEA | 0.9 | 0.74 | 0.82
HS3ST3A1 | 0.96 | 0.54 | 0.56
SIMC1 | 1.04 | 0.82 | 0.79
RHOT1 | 1.18 | 0.84 | 0.71
PDCD11 | 1.09 | 0.62 | 0.57
NFIB | 0.64 | 0.54 | 0.84
C17orf58 | 0.83 | 0.75 | 0.9
BAHCC1 | 0.9 | 0.72 | 0.8
RIMKLA | 0.93 | 0.78 | 0.84
DCPH1 | 1.17 | 0.56 | 0.48
PRMT2IP | 0.84 | 0.56 | 0.67
IFNW1 | 1.33 | 0.48 | 0.36
NAXD | 0.74 | 0.57 | 0.77
SNTA1 | 1.52 | 0.7 | 0.46
SNIP1 | 0.86 | 0.65 | 0.76
NDUFA13 | 0.87 | 0.84 | 0.97
FBXL3 | 1.07 | 0.88 | 0.82
SLAMF6 | 0.96 | 0.86 | 0.9
AFM | 0.86 | 0.62 | 0.72
TMEM129 | 0.86 | 0.55 | 0.64
SIGLEC11 | 1.63 | 0.62 | 0.38
LURAP1 | 1.07 | 0.9 | 0.84
PTPN1 | 1.22 | 0.84 | 0.69
NPIPB15 | 1.56 | 0.78 | 0.5
CARS2 | 1.11 | 0.94 | 0.85
PROX2 | 0.94 | 0.85 | 0.9
H2BC10 | 1.17 | 0.96 | 0.82
MS4A4A | 0.96 | 0.54 | 0.56
LZTS1 | 1.99 | 1.37 | 0.69
HDGF | 1.09 | 0.94 | 0.86
EPS8L3 | 1.25 | 0.7 | 0.56
DLGAP3 | 1.3 | 0.96 | 0.74
TUBB7P | 1.21 | 0.69 | 0.57
TMEM87A | 0.82 | 0.84 | 1.03
TXN | 0.85 | 0.77 | 0.91
ZNF304 | 0.98 | 0.43 | 0.44
BTNL3 | 1.25 | 0.9 | 0.72
MAGEC3 | 0.95 | 0.73 | 0.77
APOBR | 0.9 | 0.57 | 0.63
SELENOK | 1.14 | 0.9 | 0.79
ABCD3 | 1.24 | 0.94 | 0.76
OCRL | 1.17 | 0.97 | 0.83
SCN11A | 1.17 | 1.05 | 0.9
ACKR5 | 1.5 | 0.66 | 0.44
SNED1 | 1.02 | 1.02 | 1
ERAS | 0.82 | 0.72 | 0.88
CAPN10 | 1.08 | 0.52 | 0.48
RPS19BP1 | 0.93 | 0.7 | 0.75
IFNL1 | 0.89 | 0.64 | 0.72
PEX3 | 1.07 | 0.77 | 0.72
STAT2 | 1.09 | 1.06 | 0.97
SEC23B | 0.76 | 0.52 | 0.68
